Record: PubChem BioAssay AID504784 (Drosophila RNAi Screening Center, 2011)
In all, the deposit lists about 17,000 reagents; shown is an unselected part of those with a known target gene and a result. 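Each column is one replicate's B-score; the combined score over replicates was not deposited, so single values may mislead.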 A plus sign joins genes that one reagent is predicted to hit. Further read-outs or replicates are left out here. No sequences are given here.

- Aim: 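Genome-wide knock-down for genes giving too much or too little stored lipid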 (primary screen)
- Cells: Drosophila Kc167 embryonic cells
- Knock-down reagent: long dsRNA against Drosophila genes, about 250 ng dsRNA per well
- Timing: 4 days
- Treatment: cells fed 400 µM oleic acid bound to BSA
- Detection: 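Cells imaged and segmented; ratio of lipid droplet area to nuclear area, log-transformed, then normalised as a B-score over the screen; higher means more stored lipid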
- Direction: droplet/nuclear area B-score: higher = more stored lipid (overstorage)

target,amplicon,"droplet/nuclear area B-score, replicate 1"
CG32983 (GeneID 50434),DRSC22367,1.2
RpL19 (GeneID 37995),DRSC04649,5.23
Vrp1 (GeneID 37521),DRSC04148,1.03
Sld5 (GeneID 43166),DRSC14892,1.34
eloF (GeneID 41211),DRSC15162,0.984
l(3)mbt (GeneID 43288),DRSC16983,1.87
CG11211 (GeneID 35545),DRSC04851,0.522
Cpr67Fb (GeneID 39225),DRSC10314,0.128
Pgant6 (GeneID 38346),DRSC08552,-0.0512
CG15059 (GeneID 32806),DRSC19633,1.24
CG31917 + Tfb5,DRSC02362,0.00942
CG31917 + Tfb5,DRSC02363,-0.563
Inos (GeneID 35671),DRSC07655,0.0425
CG7966 (GeneID 41610),DRSC16356,-1.43
Mms19 (GeneID 40626),DRSC12188,2.16
CG32655 (GeneID 318143),DRSC18925,0.935
Oatp58Dc (GeneID 37545),DRSC04363,0.606
Gabat (GeneID 40188),DRSC10846,0.0176
cbt (GeneID 33224),DRSC00655,4.38
Ldsdh1 (GeneID 31726),DRSC18219,-0.101
Vha44 (GeneID 36826),DRSC07572,-5.07
Vha44 (GeneID 36826),DRSC07573,0.0622
dpr2 (GeneID 3346227),DRSC02370,0.678
dpr2 (GeneID 3346227),DRSC02371,0.131
CG16837 (GeneID 37904),DRSC04283,0.044
CG14506 (GeneID 43467),DRSC14858,1.58
Mocs1 (GeneID 39238),DRSC11225,0.154
CG15719 (GeneID 32249),DRSC19685,-1.46
CG12065 (GeneID 31798),DRSC17798,-0.715
CG12065 (GeneID 31798),DRSC17799,0.242
CG11788 (GeneID 37295),DRSC06084,-0.00856
KP78a + KP78b,DRSC16721,0.309
KP78a + KP78b,DRSC16722,-0.332
CG31538 (GeneID 318790),DRSC12059,0.925
Fam92 (GeneID 34654),DRSC02952,-2.66
CG11668 (GeneID 41606),DRSC14341,0.0485
CG32201 (GeneID 317911),DRSC22452,1.02
mRpL52 (GeneID 35711),DRSC06585,-2.65
CG4074 + CG4186,DRSC11753,3.82
CG31606 (GeneID 318842),DRSC01012,0.303
Cox10 (GeneID 34394),DRSC02804,0.211
CG1677 (GeneID 31662),DRSC18116,-0.958
Ehbp1 (GeneID 36912),DRSC06561,-0.242
Mcm5 (GeneID 41296),DRSC16735,-0.295
CG7763 (GeneID 36235),DRSC07043,-0.692
Rad60 (GeneID 42748),DRSC15580,0.146
CG4849 (GeneID 43358),DRSC15662,1.21
PGRP-LC (GeneID 39063),DRSC08980,-0.0548
PGRP-LC (GeneID 39063),DRSC10416,2.94
PGRP-LC (GeneID 39063),DRSC10417,0.674
CG5199 (GeneID 40265),DRSC11770,-1.13
Ance-5 (GeneID 37980),DRSC04055,-0.475
CG11147 (GeneID 33803),DRSC02129,0.45
CG6749 (GeneID 39144),DRSC10704,4.03
CG3739 (GeneID 42320),DRSC15510,0.109
Gr94a (GeneID 117339),DRSC13597,-1.78

3 of these entries in another layout:
target | amplicon | droplet/nuclear area B-score, replicate 1
PGRP-LC (GeneID 39063) | DRSC10417 | 0.674
CG5199 (GeneID 40265) | DRSC11770 | -1.13
Ance-5 (GeneID 37980) | DRSC04055 | -0.475
